# Test results from the supplement of paper PMC12067093, “Discovery and optimisation of a covalent ligand for TRIM25 and its application to targeted protein ubiquitination” (Chemical Science, 2025).
# This is one part of the list.
# Compound: CC1Cc2ccccc2N1C(=O)C1CCCN(C1)C(=O)CCl (mixture of isomers) [TRIM25 ligand 11 (diastereomer mixture)]
# Experiment: probe-labelled cysteine peptide fold change vs DMSO (competition) (log2 fold change); higher = less target engagement (more negative = stronger competition)
# Settings: 10 µM; THP-1; incubation time: 4 h
# 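Note: competitive chemoproteomic profiling in live THP-1 cells with an iodoacetamide desthiobiotin (IA-DTB) probe, comparing probe-labelled peptide intensities in compound-treated cells against DMSO-treated controls.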
row,Target,probe-labelled cysteine peptide fold change
1,PAICS_P22234_295_ACGNFGIPCELR (UniProt P22234),0.0444
2,PARP10_Q53GL7_514_SLLGSISCHVLCLEHPGSAR (UniProt Q53GL7),0.0103
3,P4HTM_Q9NXG6_156_PLLFEIPGFLTDEECR (UniProt Q9NXG6),0.353
4,P3H1_Q32P28_483_VVMDGVISDHECQELQR (UniProt Q32P28),0.223
5,PARP14_Q460N5_42_SGGGECEVR (UniProt Q460N5),-0.126
6,OSBPL8_Q9BZF1_255_CWMDALELALK (UniProt Q9BZF1),0.0868
7,P4HB_P07237_397+400_KNVFVEFYAPWCGHCK (UniProt P07237),-0.421
8,OSBPL1A_Q9BXW6_746_CVLNFKPCGLFGK (UniProt Q9BXW6),0.0146
9,ORC5_O43913_10_PHLENVVLCR (UniProt O43913),-0.0683
10,OSTF1_Q92882_114_AGSTALYWACHGGHK (UniProt Q92882),-0.0184
11,PALD1_Q9ULE6_555_EEAVLECDGHTYSLR (UniProt Q9ULE6),0.165
12,OSGEPL1_Q9H4B0_249_NCDFSFTGLQHVTDK (UniProt Q9H4B0),-0.0592
13,OPLAH_O14841_25_GGTFTDVFAQCPGGHVR (UniProt O14841),-0.206
14,PARP14_Q460N5_849_AAGPELQADCDQIVKR (UniProt Q460N5),-0.204
15,OGT_O15294_472_LKPDFPDAYCNLAHCLQIVCDWTDYDER (UniProt O15294),-0.029
16,P3H1_Q32P28_600_KDDSHPVHVDNCILNAETLVCVK (UniProt Q32P28),0.0447
17,PARN_O95453_205_NLDLEPCTGFQR (UniProt O95453),0.0315
18,OLA1_Q9NTK5_187_LKPEYDIMCK (UniProt Q9NTK5),-0.0298

row,Target,probe-labelled cysteine peptide fold change
1,OPHN1_O60890_11_GHPPLEFSDCYLDSPDFR (UniProt O60890),0.12
2,OGT_O15294_620_VMAEANHFIDLSQIPCNGK (UniProt O15294),-0.123
3,PARP14_Q460N5_739_QVWDSVCVK (UniProt Q460N5),0.116
4,ORC5_O43913_409_CTVSLDFIR (UniProt O43913),0.0546
5,OSBPL3_Q9H4L5_114_CIDLDTEEHIYHLK (UniProt Q9H4L5),-0.0859
6,PAPOLG_Q9BWT3_604_TVSPPTVCTIPTVVGR (UniProt Q9BWT3),-0.216
7,PAN2_Q504Q3_263_LTGLACDR (UniProt Q504Q3),0.0543
8,PAIP1_Q9H074_358_GKMDMEEIIQRIENVVLDANCSR (UniProt Q9H074),-0.379
9,OXSM_Q9NWU1_327_CMAAALK (UniProt Q9NWU1),0.00932
10,OLA1_Q9NTK5_75_VPVPDERFDFLCQYHK (UniProt Q9NTK5),0.102
11,PARP10_Q53GL7_1004_YDSAVDCICQPSIFVIFHDTQALPTHLITCEHVPR (UniProt Q53GL7),0.108
12,P4HB_P07237_397+400_NVFVEFYAPWCGHCK (UniProt P07237),-0.122
13,PA2G4_Q9UQ80_49_SLVEASSSGVSVLSLCEK (UniProt Q9UQ80),-0.139
14,PA2G4_Q9UQ80_87_KGIAFPTSISVNNCVCHFSPLK (UniProt Q9UQ80),0.00883
15,OSBPL1A_Q9BXW6_711_GTITLELLEHNEAYTWTNPTCCVHNIIVGK (UniProt Q9BXW6),0.129
16,OSBPL1A_Q9BXW6_171+182_TTELTALLNRPNPPDVNCSDQLGNTPLHCAAYR (UniProt Q9BXW6),0.121
17,PAFAH1B1_P43034_226_MWEVQTGYCVK (UniProt P43034),0.223
18,PARP14_Q460N5_509_VTQHLCLK (UniProt Q460N5),0.118

# Same assay, conditions: 50 µM; THP-1; incubation time: 4 h
row,Target,probe-labelled cysteine peptide fold change
1,PAICS_P22234_295_ACGNFGIPCELR (UniProt P22234),-0.125
2,PARP10_Q53GL7_514_SLLGSISCHVLCLEHPGSAR (UniProt Q53GL7),-0.0332
3,P4HTM_Q9NXG6_156_PLLFEIPGFLTDEECR (UniProt Q9NXG6),0.15
4,P3H1_Q32P28_483_VVMDGVISDHECQELQR (UniProt Q32P28),0.0914
5,PARP14_Q460N5_42_SGGGECEVR (UniProt Q460N5),-0.097
6,OSBPL8_Q9BZF1_255_CWMDALELALK (UniProt Q9BZF1),0.204
7,OSBPL1A_Q9BXW6_746_CVLNFKPCGLFGK (UniProt Q9BXW6),-0.0146
8,ORC5_O43913_10_PHLENVVLCR (UniProt O43913),-0.0422
9,OSTF1_Q92882_114_AGSTALYWACHGGHK (UniProt Q92882),0.00467
10,PALD1_Q9ULE6_555_EEAVLECDGHTYSLR (UniProt Q9ULE6),0.167
11,OSGEPL1_Q9H4B0_249_NCDFSFTGLQHVTDK (UniProt Q9H4B0),-0.0361
12,OPLAH_O14841_25_GGTFTDVFAQCPGGHVR (UniProt O14841),0.286
13,PARP14_Q460N5_849_AAGPELQADCDQIVKR (UniProt Q460N5),-0.166
14,OGT_O15294_472_LKPDFPDAYCNLAHCLQIVCDWTDYDER (UniProt O15294),0.0646
15,P3H1_Q32P28_600_KDDSHPVHVDNCILNAETLVCVK (UniProt Q32P28),0.088
16,PARN_O95453_205_NLDLEPCTGFQR (UniProt O95453),0.114
17,OLA1_Q9NTK5_187_LKPEYDIMCK (UniProt Q9NTK5),-0.159
18,OPHN1_O60890_11_GHPPLEFSDCYLDSPDFR (UniProt O60890),-0.178

row,Target,probe-labelled cysteine peptide fold change
1,OGT_O15294_620_VMAEANHFIDLSQIPCNGK (UniProt O15294),-0.392
2,PARP14_Q460N5_739_QVWDSVCVK (UniProt Q460N5),-0.0561
3,ORC5_O43913_409_CTVSLDFIR (UniProt O43913),0.141
4,OSBPL3_Q9H4L5_114_CIDLDTEEHIYHLK (UniProt Q9H4L5),0.0383
5,PAPOLG_Q9BWT3_604_TVSPPTVCTIPTVVGR (UniProt Q9BWT3),-0.238
6,PAN2_Q504Q3_263_LTGLACDR (UniProt Q504Q3),0.17
7,PAIP1_Q9H074_358_GKMDMEEIIQRIENVVLDANCSR (UniProt Q9H074),-0.259
8,OXSM_Q9NWU1_327_CMAAALK (UniProt Q9NWU1),0.00745
9,OLA1_Q9NTK5_75_VPVPDERFDFLCQYHK (UniProt Q9NTK5),0.153
10,PARP10_Q53GL7_1004_YDSAVDCICQPSIFVIFHDTQALPTHLITCEHVPR (UniProt Q53GL7),-0.334
11,P4HB_P07237_397+400_NVFVEFYAPWCGHCK (UniProt P07237),-0.34
12,PA2G4_Q9UQ80_49_SLVEASSSGVSVLSLCEK (UniProt Q9UQ80),-0.0484
13,PA2G4_Q9UQ80_87_KGIAFPTSISVNNCVCHFSPLK (UniProt Q9UQ80),-0.396
14,OSBPL1A_Q9BXW6_711_GTITLELLEHNEAYTWTNPTCCVHNIIVGK (UniProt Q9BXW6),0.152
15,OSBPL1A_Q9BXW6_171+182_TTELTALLNRPNPPDVNCSDQLGNTPLHCAAYR (UniProt Q9BXW6),-0.0218
16,PAFAH1B1_P43034_226_MWEVQTGYCVK (UniProt P43034),0.287
17,PARP14_Q460N5_509_VTQHLCLK (UniProt Q460N5),0.182
